Test results taken from the supplement of paper PMC10849652.
The other results are listed elsewhere or left out.

The chains behind the UniProt entries cited, without tags or fusion partners. Where a name states a change or a piece, a line headed by the entry shows the natural chain unless it says otherwise.
UniProt O43736: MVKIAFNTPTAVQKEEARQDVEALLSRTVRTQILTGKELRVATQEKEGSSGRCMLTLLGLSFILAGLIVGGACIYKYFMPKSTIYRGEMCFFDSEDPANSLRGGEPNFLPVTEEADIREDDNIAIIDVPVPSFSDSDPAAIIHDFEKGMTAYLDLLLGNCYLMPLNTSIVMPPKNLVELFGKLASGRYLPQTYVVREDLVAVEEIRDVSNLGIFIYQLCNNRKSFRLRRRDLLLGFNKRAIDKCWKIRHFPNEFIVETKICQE
UniProt Q14116, whole entry, looked up: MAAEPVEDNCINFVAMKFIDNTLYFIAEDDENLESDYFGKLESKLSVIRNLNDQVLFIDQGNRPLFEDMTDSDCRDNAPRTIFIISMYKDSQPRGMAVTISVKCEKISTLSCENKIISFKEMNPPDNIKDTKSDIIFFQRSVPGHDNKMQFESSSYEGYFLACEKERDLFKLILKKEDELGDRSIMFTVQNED
UniProt O14920: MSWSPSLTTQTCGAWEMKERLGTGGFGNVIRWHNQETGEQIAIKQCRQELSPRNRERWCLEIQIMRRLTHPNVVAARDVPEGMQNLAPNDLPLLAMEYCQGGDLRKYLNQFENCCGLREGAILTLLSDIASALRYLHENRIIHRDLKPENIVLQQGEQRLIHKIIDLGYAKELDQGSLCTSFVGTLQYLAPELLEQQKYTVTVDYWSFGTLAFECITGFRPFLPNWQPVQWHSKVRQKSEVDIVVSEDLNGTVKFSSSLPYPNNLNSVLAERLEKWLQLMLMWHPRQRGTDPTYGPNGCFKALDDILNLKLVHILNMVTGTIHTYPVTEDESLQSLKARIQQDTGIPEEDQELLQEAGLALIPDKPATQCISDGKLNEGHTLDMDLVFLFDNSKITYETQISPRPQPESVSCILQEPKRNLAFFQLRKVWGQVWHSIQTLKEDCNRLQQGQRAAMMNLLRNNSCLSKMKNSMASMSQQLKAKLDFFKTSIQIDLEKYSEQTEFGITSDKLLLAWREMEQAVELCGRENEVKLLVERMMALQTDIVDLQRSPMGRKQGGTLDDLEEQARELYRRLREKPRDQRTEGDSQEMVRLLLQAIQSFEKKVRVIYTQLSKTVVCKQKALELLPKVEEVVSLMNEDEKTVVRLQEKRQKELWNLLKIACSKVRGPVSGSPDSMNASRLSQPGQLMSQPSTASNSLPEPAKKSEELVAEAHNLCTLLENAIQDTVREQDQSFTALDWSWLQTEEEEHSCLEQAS
UniProt Q68E01, whole entry, looked up: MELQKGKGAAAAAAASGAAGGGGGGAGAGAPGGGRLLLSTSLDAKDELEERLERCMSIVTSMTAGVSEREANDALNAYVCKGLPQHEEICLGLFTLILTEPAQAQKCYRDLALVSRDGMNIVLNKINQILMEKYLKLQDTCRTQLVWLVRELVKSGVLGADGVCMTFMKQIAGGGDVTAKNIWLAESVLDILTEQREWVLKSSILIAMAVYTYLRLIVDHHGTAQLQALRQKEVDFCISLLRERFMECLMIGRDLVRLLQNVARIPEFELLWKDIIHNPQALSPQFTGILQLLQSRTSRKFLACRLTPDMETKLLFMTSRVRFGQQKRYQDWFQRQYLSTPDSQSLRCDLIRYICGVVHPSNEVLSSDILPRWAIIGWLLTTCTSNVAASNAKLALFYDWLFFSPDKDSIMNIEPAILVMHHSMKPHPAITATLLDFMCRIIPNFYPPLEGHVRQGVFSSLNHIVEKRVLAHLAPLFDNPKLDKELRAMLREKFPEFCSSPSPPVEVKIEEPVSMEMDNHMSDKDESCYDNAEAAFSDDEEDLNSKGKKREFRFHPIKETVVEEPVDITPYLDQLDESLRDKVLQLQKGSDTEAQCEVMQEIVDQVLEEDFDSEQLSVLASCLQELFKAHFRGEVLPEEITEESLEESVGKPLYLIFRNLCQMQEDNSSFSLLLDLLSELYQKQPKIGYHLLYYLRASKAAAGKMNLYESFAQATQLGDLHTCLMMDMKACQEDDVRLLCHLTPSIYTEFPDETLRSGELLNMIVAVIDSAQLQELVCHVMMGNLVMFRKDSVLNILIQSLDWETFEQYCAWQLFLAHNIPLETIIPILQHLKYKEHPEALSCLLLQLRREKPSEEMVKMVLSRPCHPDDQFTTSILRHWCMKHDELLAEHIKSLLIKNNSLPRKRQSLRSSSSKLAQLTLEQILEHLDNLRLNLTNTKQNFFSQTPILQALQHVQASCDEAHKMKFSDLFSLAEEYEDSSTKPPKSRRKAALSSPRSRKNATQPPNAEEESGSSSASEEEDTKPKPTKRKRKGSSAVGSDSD
UniProt Q96CN7: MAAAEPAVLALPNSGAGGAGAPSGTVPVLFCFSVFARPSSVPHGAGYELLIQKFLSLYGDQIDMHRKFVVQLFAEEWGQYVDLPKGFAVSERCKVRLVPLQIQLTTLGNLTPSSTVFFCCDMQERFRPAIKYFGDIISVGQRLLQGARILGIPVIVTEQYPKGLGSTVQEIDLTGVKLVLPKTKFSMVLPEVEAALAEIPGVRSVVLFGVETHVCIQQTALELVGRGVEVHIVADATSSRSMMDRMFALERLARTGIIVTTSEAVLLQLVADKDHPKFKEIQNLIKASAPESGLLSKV
UniProt Q9NVR2, whole entry, looked up: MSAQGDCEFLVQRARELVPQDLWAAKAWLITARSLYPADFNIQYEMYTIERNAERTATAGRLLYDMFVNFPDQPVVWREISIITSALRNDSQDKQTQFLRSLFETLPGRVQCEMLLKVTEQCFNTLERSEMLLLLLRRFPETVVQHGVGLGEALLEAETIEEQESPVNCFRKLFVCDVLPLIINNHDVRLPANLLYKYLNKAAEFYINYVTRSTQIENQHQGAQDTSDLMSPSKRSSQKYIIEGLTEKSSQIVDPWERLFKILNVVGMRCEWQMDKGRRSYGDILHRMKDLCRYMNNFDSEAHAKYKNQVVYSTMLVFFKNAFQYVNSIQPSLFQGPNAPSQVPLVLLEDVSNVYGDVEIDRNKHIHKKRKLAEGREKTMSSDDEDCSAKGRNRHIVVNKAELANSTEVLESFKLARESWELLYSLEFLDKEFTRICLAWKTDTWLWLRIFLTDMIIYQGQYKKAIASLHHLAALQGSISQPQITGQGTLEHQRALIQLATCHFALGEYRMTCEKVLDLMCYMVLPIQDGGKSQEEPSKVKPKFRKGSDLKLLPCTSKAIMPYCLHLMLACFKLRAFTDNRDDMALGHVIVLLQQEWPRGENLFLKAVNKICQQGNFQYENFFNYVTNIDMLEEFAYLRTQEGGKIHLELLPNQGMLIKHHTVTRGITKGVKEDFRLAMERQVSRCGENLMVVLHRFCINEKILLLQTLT
UniProt P50213: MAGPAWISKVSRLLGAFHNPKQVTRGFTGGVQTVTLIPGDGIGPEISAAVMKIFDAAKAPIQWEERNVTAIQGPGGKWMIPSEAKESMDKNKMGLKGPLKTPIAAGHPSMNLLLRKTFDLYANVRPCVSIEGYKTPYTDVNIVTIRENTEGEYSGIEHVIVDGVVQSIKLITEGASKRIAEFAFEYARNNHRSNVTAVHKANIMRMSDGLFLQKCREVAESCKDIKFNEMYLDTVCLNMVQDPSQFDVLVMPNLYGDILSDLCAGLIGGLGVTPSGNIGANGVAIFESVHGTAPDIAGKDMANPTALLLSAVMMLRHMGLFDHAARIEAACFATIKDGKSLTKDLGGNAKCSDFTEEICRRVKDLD
UniProt P06756, whole entry, looked up: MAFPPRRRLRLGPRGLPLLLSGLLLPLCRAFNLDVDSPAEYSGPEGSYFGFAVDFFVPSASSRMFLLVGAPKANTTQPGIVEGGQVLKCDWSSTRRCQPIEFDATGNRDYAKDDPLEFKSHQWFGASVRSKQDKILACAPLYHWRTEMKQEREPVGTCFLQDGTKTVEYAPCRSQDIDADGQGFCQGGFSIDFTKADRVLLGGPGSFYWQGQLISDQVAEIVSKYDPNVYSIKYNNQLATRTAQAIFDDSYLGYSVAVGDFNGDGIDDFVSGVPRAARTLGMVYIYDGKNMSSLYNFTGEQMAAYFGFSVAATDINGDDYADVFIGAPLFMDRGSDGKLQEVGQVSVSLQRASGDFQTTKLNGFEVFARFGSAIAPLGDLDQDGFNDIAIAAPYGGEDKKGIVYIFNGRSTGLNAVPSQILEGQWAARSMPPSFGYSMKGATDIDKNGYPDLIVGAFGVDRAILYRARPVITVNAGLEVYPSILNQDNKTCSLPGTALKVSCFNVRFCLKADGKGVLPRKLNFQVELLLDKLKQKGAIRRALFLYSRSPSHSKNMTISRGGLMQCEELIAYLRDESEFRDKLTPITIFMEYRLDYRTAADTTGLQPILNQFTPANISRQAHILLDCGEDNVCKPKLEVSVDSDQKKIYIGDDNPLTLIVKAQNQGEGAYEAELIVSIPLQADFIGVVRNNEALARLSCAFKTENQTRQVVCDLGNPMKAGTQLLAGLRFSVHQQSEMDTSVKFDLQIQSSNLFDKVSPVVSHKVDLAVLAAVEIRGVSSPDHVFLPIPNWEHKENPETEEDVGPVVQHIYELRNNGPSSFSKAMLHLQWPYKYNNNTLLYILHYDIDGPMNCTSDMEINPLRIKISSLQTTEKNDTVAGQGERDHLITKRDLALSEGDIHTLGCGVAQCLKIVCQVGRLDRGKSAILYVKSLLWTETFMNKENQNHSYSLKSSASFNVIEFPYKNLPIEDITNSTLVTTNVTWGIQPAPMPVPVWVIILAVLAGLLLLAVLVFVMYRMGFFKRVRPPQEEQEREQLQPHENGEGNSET
UniProt P48735: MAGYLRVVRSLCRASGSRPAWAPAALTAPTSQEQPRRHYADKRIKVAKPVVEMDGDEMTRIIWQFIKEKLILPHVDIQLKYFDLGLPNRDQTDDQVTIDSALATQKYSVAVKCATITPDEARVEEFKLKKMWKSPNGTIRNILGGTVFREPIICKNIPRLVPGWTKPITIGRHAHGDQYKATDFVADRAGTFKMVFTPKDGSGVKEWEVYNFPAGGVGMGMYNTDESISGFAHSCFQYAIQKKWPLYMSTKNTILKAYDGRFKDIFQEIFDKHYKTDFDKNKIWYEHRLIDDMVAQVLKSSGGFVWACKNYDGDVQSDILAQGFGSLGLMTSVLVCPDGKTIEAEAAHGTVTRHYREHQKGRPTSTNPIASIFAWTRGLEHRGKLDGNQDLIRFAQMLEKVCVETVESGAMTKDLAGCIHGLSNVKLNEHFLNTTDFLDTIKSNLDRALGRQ
UniProt Q14624: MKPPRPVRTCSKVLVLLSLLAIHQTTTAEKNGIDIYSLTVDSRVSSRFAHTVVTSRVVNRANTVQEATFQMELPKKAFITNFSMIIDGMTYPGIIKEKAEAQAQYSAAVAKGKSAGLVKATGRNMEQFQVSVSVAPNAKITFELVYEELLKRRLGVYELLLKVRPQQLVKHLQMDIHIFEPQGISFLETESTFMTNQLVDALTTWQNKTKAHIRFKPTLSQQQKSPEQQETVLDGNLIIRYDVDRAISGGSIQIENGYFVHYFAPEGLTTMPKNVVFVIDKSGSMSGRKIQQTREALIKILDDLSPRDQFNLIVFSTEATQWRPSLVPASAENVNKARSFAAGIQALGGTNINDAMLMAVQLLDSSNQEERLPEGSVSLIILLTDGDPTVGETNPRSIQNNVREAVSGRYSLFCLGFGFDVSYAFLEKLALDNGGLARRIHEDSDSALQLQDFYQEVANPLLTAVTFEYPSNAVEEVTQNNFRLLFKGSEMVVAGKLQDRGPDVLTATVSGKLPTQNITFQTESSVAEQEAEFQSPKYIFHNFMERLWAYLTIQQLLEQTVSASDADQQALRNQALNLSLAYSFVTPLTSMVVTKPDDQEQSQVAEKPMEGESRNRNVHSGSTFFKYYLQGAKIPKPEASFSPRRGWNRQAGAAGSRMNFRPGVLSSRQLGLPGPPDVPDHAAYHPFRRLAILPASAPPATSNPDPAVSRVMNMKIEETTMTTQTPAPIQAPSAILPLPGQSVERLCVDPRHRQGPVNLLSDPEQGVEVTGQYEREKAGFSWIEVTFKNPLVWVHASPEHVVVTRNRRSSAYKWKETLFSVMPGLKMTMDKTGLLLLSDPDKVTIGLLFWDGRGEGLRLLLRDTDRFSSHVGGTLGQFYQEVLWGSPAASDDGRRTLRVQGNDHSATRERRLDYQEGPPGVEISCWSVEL
UniProt Q9H0C8: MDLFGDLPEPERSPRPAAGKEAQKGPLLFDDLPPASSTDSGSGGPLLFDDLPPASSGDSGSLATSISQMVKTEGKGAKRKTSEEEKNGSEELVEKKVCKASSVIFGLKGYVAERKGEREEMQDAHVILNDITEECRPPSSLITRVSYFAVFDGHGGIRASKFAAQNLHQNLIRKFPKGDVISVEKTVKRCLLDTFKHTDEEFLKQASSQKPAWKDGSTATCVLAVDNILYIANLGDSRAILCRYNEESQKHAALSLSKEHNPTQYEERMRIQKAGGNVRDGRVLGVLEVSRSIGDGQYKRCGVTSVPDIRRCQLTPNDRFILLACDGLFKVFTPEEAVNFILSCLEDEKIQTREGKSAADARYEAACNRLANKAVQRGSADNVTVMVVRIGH

Assays:
Test in all cases: log2 fold change, soluble protein after heating vs DMSO (PISA); higher = thermal stabilisation; K562 cells, 10 uM, 30 min; active = over 0.2 and 3.5 SD of the protein, either way, in both replicates (recomputed)
[1] = compound: CC1=C(C=C(C=C1)NC(=O)C2=CC(=CC=C2)C(C)(C)C#N)NC3=CC4=C(C=C3)N=CN(C4=O)C
Outline: (§1)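 Soluble protein was defined as the supernatant after 21,000xg for 90 min. It came from K562 cells at 2×10^6 cells/mL given 10 μM compound for 30 min, heated in aliquots for 3 min across 48°C-58°C, pooled, and extracted in PBS with 0.5% NP-40 at 4°C, and was quantified by TMTpro 16plex LC-MS/MS with equalised channel sums. Thermal stability against control samples, from duplicates, is reported as log2 fold change.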

[2] = compound: CC1=C(C=C(C=C1)NC(=O)C2=CC(=CC=C2)N(C)C)NC(=O)C3=CC=C(C=C3)O
Outline: as §1

[3] = compound: CC1=CC=C(C=C1)SC2=C3C=C(SC3=CN=C2)C(=O)N
Outline: as §1

[4] = compound: CC1=NC(=CC=C1)C2=C(N=C(N2)C(C)(C)C)C3=CC4=NC=CN=C4C=C3
Outline: as §1

[5] = compound: CCCCN(Cc1ccc(C(=O)NO)cc1)C(=O)Nc1ccccc1 [Nexturastat A]
Outline: as §1

[6] = compound: CCCS(=O)(=O)Nc1ccc(F)c(C(=O)c2c[nH]c3ncc(-c4ccc(Cl)cc4)cc23)c1F [vemurafenib]
Outline: as §1

[7] = compound: CCCS(=O)(=O)Nc1ccc(F)c(C(=O)c2c[nH]c3ncc(Cl)cc23)c1F
Outline: as §1

[8] = compound: CCCc1cc(C)[nH]c(=O)c1CNC(=O)c1cc(-c2ccnc(N3CCN(C)CC3)c2)cc2c1cnn2C(C)C
Outline: as §1

[9] = compound: CCN(CC)Cc1ccc2cc(COC(=O)Nc3ccc(C(=O)NO)cc3)ccc2c1 [givinostat]
Outline: as §1

[10] = compound: CCN(CCCOc1ccc2c(Nc3cc(CC(=O)Nc4cccc(F)c4)[nH]n3)ncnc2c1)CCOP(=O)(O)O [barasertib]
Outline: as §1

[11] = compound: CC[C@@H]1C(=O)N(C)c2cnc(Nc3ccc(C(=O)NC4CCN(C)CC4)cc3OC)nc2N1C1CCCC1
Outline: as §1

[12] = compound: CC[C@@H]1C(=O)N(C)c2cnc(Nc3ccc(C(=O)N[C@H]4CC[C@H](N5CCN(CC6CC6)CC5)CC4)cc3OC)nc2N1C(C)C [volasertib]
Outline: as §1

[13] = compound: CC[C@H](C)N1C=C(C2=C(C=C(C=C21)C3=CN=C(C=C3)N4CCNCC4)C(=O)NCC5=C(C=C(NC5=O)C)C)C
Outline: as §1

[14] = compound: CC[C@H](C)[C@@H](C(=O)N[C@@H]([C@@H](C)O)C(=O)N[C@@H](CC(C)C)C(=O)[C@]1(CO1)C)NC(=O)[C@H]([C@@H](C)CC)N(C)C(=O)C [epoxomicin]
Outline: as §1

[15] = compound: CCn1c(C(=O)N(C2CC2)C2CC2)cc2c3c(ncn3C)c(Nc3cc(C)n(C)n3)nc21
Outline: as §1

[16] = compound: CCn1cc(-c2ccnc3[nH]c(-c4cccc(CN(C)C)c4)cc23)c(-c2ccc(NC(=O)N(C)C)cc2)n1
Outline: as §1

[17] = compound: CN(C)CC(=O)Nc1ccc2[nH]c(=O)c3ccccc3c2c1
Outline: as §1

[18] = compound: CN(CCOC1=CC=C(C=C1)C[C@H]2C(=O)NC(=O)S2)C3=CC=CC=N3 (racemic) [rosiglitazone]
Outline: as §1

[19] = compound: CN1C2=C(C3=C1C(=O)N(N=C3)CC4=CC(=CC=C4)N)SC(=C2)S(=O)C
Outline: as §1

[20] = compound: CN1CCC(CNc2ccc3ncc(-c4cccc(OC(F)(F)F)c4)n3n2)CC1
Outline: as §1

| Target | log2 fold change [1] | log2 fold change [2] | log2 fold change [3] | log2 fold change [4] | log2 fold change [5] | log2 fold change [6] | log2 fold change [7] | log2 fold change [8] | log2 fold change [9] | log2 fold change [10] | log2 fold change [11] | log2 fold change [12] | log2 fold change [13] | log2 fold change [14] | log2 fold change [15] | log2 fold change [16] | log2 fold change [17] | log2 fold change [18] | log2 fold change [19] | log2 fold change [20] |
| --- | --- | --- | --- | --- | --- | --- | --- | --- | --- | --- | --- | --- | --- | --- | --- | --- | --- | --- | --- | --- |
| ITM2A (UniProt O43736) | inactive: -0.033 | inactive: -0.073 | inactive: -0.026 | inactive: -0.03 | inactive: 0.002 | inactive: -0.004 | inactive: -0.103 | inactive: 0.026 | inactive: -0.046 | inactive: -0.015 | inactive: -0.028 | inactive: -0.081 | inactive: -0.019 | inactive: -0.045 | inactive: -0.021 | inactive: -0.01 | inactive: -0.055 | inactive: -0.015 | inactive: -0.024 | inactive: 0.02 |
| IL18 (UniProt Q14116) | inactive: -0.047 | inactive: -0.041 | inactive: 0.042 | inactive: -0.034 | inactive: -0.058 | inactive: -0.037 | inactive: -0.004 | inactive: -0.068 | inactive: 0.004 | inactive: 0.045 | inactive: 0.071 | inactive: 0.059 | inactive: -0.004 | inactive: -0.007 | inactive: -0.006 | inactive: -0.11 | inactive: -0.013 | inactive: -0.037 | inactive: -0.089 | inactive: 0.011 |
| IKBKB (UniProt O14920) | inactive: 0.035 | inactive: 0.003 | inactive: 0.091 | inactive: -0.235 | inactive: 0.44 | inactive: -0.092 | inactive: 0.047 | inactive: 0.229 | inactive: 0.2 | inactive: 0.016 | inactive: 0.272 | inactive: -0.225 | inactive: 0.088 | inactive: -0.051 | inactive: -0.119 | – | inactive: -0.063 | inactive: 0.14 | inactive: 0.236 | – |
| INTS3 (UniProt Q68E01) | inactive: -0.049 | inactive: 0.033 | inactive: -0.016 | inactive: -0.005 | inactive: 0.054 | inactive: 0.053 | inactive: 0.058 | inactive: -0.006 | inactive: 0.137 | inactive: 0.05 | inactive: -0.014 | inactive: -0.226 | inactive: 0.076 | inactive: 0.125 | inactive: -0.051 | inactive: -0.027 | inactive: 0.025 | inactive: 0.058 | inactive: -0.04 | inactive: -0.049 |
| IRAK4 (UniProt Q9NWZ3) | inactive: 0.006 | inactive: -0.039 | inactive: 0 | inactive: 0.03 | inactive: 0.009 | inactive: 0.041 | inactive: 0.068 | inactive: -0.003 | inactive: 0.062 | inactive: 0.024 | inactive: -0.138 | inactive: -0.299 | inactive: 0.048 | inactive: 0.038 | – | inactive: -0.033 | inactive: 0.061 | – | inactive: 0.029 | inactive: 0.013 |
| ISOC1 (UniProt Q96CN7) | inactive: -0.005 | inactive: -0.018 | inactive: -0.001 | inactive: -0.003 | inactive: -0.049 | inactive: 0.008 | inactive: -0.021 | inactive: -0.068 | inactive: -0.005 | inactive: -0.024 | inactive: -0.003 | inactive: 0.011 | inactive: -0.047 | inactive: -0.006 | inactive: 0.037 | inactive: -0.038 | inactive: 0.011 | inactive: 0.024 | inactive: -0.036 | inactive: 0.014 |
| INPP4A (UniProt Q96PE3) | inactive: -0.02 | inactive: -0.103 | inactive: -0.027 | inactive: -0.023 | inactive: -0.022 | inactive: -0.013 | inactive: -0.026 | inactive: -0.127 | inactive: 0.009 | inactive: 0.032 | inactive: 0.012 | inactive: -0.033 | inactive: 0.032 | inactive: 0.011 | inactive: -0.011 | inactive: 0.12 | inactive: 0.056 | inactive: 0.035 | inactive: 0.015 | inactive: -0.209 |
| INPP5B (UniProt P32019) | inactive: 0.02 | inactive: -0.06 | inactive: -0.071 | inactive: 0.007 | inactive: 0.096 | inactive: -0.006 | inactive: -0.004 | inactive: 0.062 | inactive: 0.105 | inactive: 0.069 | inactive: 0.021 | inactive: -0.04 | inactive: 0.002 | inactive: 0.007 | – | inactive: 0.031 | inactive: 0.057 | – | inactive: 0.12 | inactive: 0.003 |
| INTS10 (UniProt Q9NVR2) | inactive: 0.004 | inactive: -0.058 | inactive: 0.048 | inactive: 0.059 | inactive: -0.04 | inactive: 0.084 | inactive: 0.024 | inactive: -0.001 | inactive: 0.02 | inactive: 0.1 | inactive: -0.143 | inactive: -0.206 | inactive: 0.023 | inactive: 0.048 | inactive: -0.04 | inactive: -0.036 | inactive: 0.09 | inactive: 0.049 | inactive: 0 | inactive: -0.086 |
| IDH3A (UniProt P50213) | inactive: -0.029 | inactive: -0.003 | inactive: 0.031 | inactive: 0.015 | inactive: -0.084 | inactive: 0.009 | inactive: -0.009 | inactive: -0.014 | inactive: -0.06 | inactive: -0.006 | inactive: -0.031 | inactive: -0.01 | inactive: 0.004 | inactive: 0.063 | – | inactive: -0.027 | inactive: 0 | – | inactive: -0.064 | inactive: 0.033 |
| ISG15 (UniProt P05161) | inactive: 0.007 | inactive: -0.059 | inactive: -0.005 | inactive: 0.079 | inactive: 0.017 | inactive: 0.065 | inactive: 0.057 | inactive: -0.022 | inactive: 0.106 | inactive: 0.056 | inactive: 0.002 | inactive: -0.198 | inactive: 0.088 | inactive: -0.049 | inactive: -0.045 | inactive: -0.075 | inactive: 0.062 | inactive: 0.083 | inactive: -0.102 | inactive: -0.053 |
| ITGAV (UniProt P06756) | inactive: -0.046 | inactive: -0.018 | inactive: -0.027 | inactive: 0.01 | inactive: -0.002 | inactive: -0.036 | inactive: -0.009 | inactive: 0 | inactive: -0.009 | inactive: -0.005 | inactive: -0.077 | inactive: -0.107 | inactive: -0.033 | inactive: 0.01 | inactive: -0.013 | inactive: -0.004 | inactive: -0.019 | inactive: 0.015 | inactive: -0.006 | inactive: -0.068 |
| IDH2 (UniProt P48735) | inactive: 0.018 | inactive: -0.054 | inactive: -0.041 | inactive: 0.02 | inactive: -0.139 | inactive: -0.014 | inactive: 0.007 | inactive: -0.021 | inactive: -0.063 | inactive: 0.053 | inactive: 0.016 | inactive: 0.029 | inactive: -0.005 | inactive: 0.051 | inactive: -0.001 | inactive: -0.09 | inactive: -0.014 | inactive: -0.02 | inactive: -0.059 | inactive: -0.11 |
| ITIH4 (UniProt Q14624) | inactive: -0.14 | inactive: 0.166 | inactive: 0.135 | inactive: 0.214 | inactive: 0.014 | inactive: 0.224 | inactive: 0.012 | inactive: -0.211 | inactive: -0.005 | inactive: 0.014 | inactive: -0.18 | inactive: -0.311 | inactive: -0.248 | inactive: -0.318 | – | inactive: 0.102 | inactive: -0.012 | – | inactive: 0.177 | inactive: -0.413 |
| ILKAP (UniProt Q9H0C8) | inactive: -0.026 | inactive: -0.117 | inactive: 0.072 | inactive: 0.168 | inactive: 0 | inactive: 0.08 | inactive: 0.082 | inactive: 0.063 | inactive: 0.071 | inactive: 0.07 | inactive: -0.135 | active: -0.343 | inactive: 0.127 | inactive: 0.077 | – | inactive: -0.052 | inactive: 0.086 | – | inactive: -0.085 | inactive: -0.064 |
| INTS13 (UniProt Q9NVM9) | inactive: -0.005 | inactive: 0.022 | inactive: 0.009 | inactive: 0.063 | inactive: -0.025 | inactive: 0.06 | inactive: 0.015 | inactive: 0.056 | inactive: 0.019 | inactive: 0.028 | inactive: -0.05 | inactive: -0.12 | inactive: 0.115 | inactive: 0.068 | inactive: -0.05 | inactive: 0.032 | inactive: 0.03 | inactive: 0.051 | inactive: -0.045 | inactive: -0.078 |

Some of the entries above, reformatted:
Target	log2 fold change [1]	log2 fold change [2]	log2 fold change [3]	log2 fold change [4]	log2 fold change [5]	log2 fold change [6]	log2 fold change [7]	log2 fold change [8]	log2 fold change [9]	log2 fold change [10]	log2 fold change [11]	log2 fold change [12]	log2 fold change [13]	log2 fold change [14]	log2 fold change [15]	log2 fold change [16]	log2 fold change [17]	log2 fold change [18]	log2 fold change [19]	log2 fold change [20]
INTS10 (UniProt Q9NVR2)	inactive: 0.004	inactive: -0.058	inactive: 0.048	inactive: 0.059	inactive: -0.04	inactive: 0.084	inactive: 0.024	inactive: -0.001	inactive: 0.02	inactive: 0.1	inactive: -0.143	inactive: -0.206	inactive: 0.023	inactive: 0.048	inactive: -0.04	inactive: -0.036	inactive: 0.09	inactive: 0.049	inactive: 0	inactive: -0.086
IDH3A (UniProt P50213)	inactive: -0.029	inactive: -0.003	inactive: 0.031	inactive: 0.015	inactive: -0.084	inactive: 0.009	inactive: -0.009	inactive: -0.014	inactive: -0.06	inactive: -0.006	inactive: -0.031	inactive: -0.01	inactive: 0.004	inactive: 0.063	–	inactive: -0.027	inactive: 0	–	inactive: -0.064	inactive: 0.033
